In paper PMC8172566:

Columns and labels:
[1] = target: T1, Flag-IRF7 (human) (UniProt Q92985); test: co-IP; HEK293 cells cotransfected with IRF7, an IKKε isoform and HA-ubiquitin; lysis in IP buffer (150 mM NaCl, 20 mM Tris pH 7.5, 0.1% Triton X-100, 10 mM N-ethylmaleimide); anti-Flag M2 affinity beads, 4 °C, 2 h; blot with anti-V5
T1 sequence: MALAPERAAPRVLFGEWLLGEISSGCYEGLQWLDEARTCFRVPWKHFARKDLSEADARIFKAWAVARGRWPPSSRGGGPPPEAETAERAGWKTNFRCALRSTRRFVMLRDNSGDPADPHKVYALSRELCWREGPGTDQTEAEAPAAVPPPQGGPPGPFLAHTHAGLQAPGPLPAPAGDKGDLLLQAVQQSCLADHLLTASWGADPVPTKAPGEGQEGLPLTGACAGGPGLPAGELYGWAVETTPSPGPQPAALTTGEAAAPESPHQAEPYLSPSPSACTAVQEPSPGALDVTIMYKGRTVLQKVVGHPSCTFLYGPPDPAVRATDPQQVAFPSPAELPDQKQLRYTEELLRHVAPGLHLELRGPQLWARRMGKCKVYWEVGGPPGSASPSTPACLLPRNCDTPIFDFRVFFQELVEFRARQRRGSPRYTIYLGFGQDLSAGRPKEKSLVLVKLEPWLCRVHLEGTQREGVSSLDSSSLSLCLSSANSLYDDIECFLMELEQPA

[2] = target: Flag-IKKε isoform 2 (IKKε v2) (human); test: as above
[3] = target: Flag-IKKε isoform 2 (IKKε v2) (human); test: co-IP; RD cells cotransfected with each Flag-IKKε isoform and HA-ubi; anti-Flag beads; endogenous IRF7 detected by anti-IRF7 antibody

Molecule: V5-IKKε isoform 2 (IKKε v2) (human) (enzyme)
- binding [1]: binds

B1: V5-IRF7 (protein, UniProt Q92985 1-503)
chain: MALAPERAAPRVLFGEWLLGEISSGCYEGLQWLDEARTCFRVPWKHFARKDLSEADARIFKAWAVARGRWPPSSRGGGPPPEAETAERAGWKTNFRCALRSTRRFVMLRDNSGDPADPHKVYALSRELCWREGPGTDQTEAEAPAAVPPPQGGPPGPFLAHTHAGLQAPGPLPAPAGDKGDLLLQAVQQSCLADHLLTASWGADPVPTKAPGEGQEGLPLTGACAGGPGLPAGELYGWAVETTPSPGPQPAALTTGEAAAPESPHQAEPYLSPSPSACTAVQEPSPGALDVTIMYKGRTVLQKVVGHPSCTFLYGPPDPAVRATDPQQVAFPSPAELPDQKQLRYTEELLRHVAPGLHLELRGPQLWARRMGKCKVYWEVGGPPGSASPSTPACLLPRNCDTPIFDFRVFFQELVEFRARQRRGSPRYTIYLGFGQDLSAGRPKEKSLVLVKLEPWLCRVHLEGTQREGVSSLDSSSLSLCLSSANSLYDDIECFLMELEQPA
- binding [2]: binds

B2: endogenous IRF7 (protein, UniProt Q92985 1-503)
chain: MALAPERAAPRVLFGEWLLGEISSGCYEGLQWLDEARTCFRVPWKHFARKDLSEADARIFKAWAVARGRWPPSSRGGGPPPEAETAERAGWKTNFRCALRSTRRFVMLRDNSGDPADPHKVYALSRELCWREGPGTDQTEAEAPAAVPPPQGGPPGPFLAHTHAGLQAPGPLPAPAGDKGDLLLQAVQQSCLADHLLTASWGADPVPTKAPGEGQEGLPLTGACAGGPGLPAGELYGWAVETTPSPGPQPAALTTGEAAAPESPHQAEPYLSPSPSACTAVQEPSPGALDVTIMYKGRTVLQKVVGHPSCTFLYGPPDPAVRATDPQQVAFPSPAELPDQKQLRYTEELLRHVAPGLHLELRGPQLWARRMGKCKVYWEVGGPPGSASPSTPACLLPRNCDTPIFDFRVFFQELVEFRARQRRGSPRYTIYLGFGQDLSAGRPKEKSLVLVKLEPWLCRVHLEGTQREGVSSLDSSSLSLCLSSANSLYDDIECFLMELEQPA
- binding [3]: binds

Results are given in words; binding and its absence hold for the method and conditions named. In cells and extracts the contact can be indirect. Binding calls can cover weak binding; strength is not graded here. For part of these data: Sequences can lack the tags named with a protein.
